From PMC3892065
Results are given in words; binding and its absence hold for the method and conditions named. In cells and extracts the contact can be indirect. Some results given as binding are weak or reduced against the parent protein; the word gives no strength.

By UniProt entry, the sequences of proteins in these tests, tags left out.
UniProt Q6DV79: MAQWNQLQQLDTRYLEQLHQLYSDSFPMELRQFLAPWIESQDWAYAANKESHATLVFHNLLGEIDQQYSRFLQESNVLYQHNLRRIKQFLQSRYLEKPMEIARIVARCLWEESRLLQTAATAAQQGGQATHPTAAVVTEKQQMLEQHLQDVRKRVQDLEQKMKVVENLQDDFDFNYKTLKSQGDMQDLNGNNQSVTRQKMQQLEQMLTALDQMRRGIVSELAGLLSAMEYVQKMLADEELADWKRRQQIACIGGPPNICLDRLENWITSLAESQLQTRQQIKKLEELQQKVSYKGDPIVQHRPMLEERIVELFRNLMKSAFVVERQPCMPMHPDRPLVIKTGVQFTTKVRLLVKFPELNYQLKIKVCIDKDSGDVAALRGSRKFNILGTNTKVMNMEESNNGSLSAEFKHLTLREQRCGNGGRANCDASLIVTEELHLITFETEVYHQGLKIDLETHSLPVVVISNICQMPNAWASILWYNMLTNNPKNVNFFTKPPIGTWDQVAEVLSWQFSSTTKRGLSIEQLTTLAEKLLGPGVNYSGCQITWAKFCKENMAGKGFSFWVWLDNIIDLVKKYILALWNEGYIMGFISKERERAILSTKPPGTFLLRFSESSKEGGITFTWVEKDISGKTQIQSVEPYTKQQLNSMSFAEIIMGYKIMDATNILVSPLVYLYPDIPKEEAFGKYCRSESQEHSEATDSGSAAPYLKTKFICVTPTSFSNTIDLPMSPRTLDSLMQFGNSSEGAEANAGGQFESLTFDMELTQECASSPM

Biological target: T1, CCAAT/enhancer binding protein beta (chicken (endogenous in liver)) (UniProt Q05826)
T1 sequence: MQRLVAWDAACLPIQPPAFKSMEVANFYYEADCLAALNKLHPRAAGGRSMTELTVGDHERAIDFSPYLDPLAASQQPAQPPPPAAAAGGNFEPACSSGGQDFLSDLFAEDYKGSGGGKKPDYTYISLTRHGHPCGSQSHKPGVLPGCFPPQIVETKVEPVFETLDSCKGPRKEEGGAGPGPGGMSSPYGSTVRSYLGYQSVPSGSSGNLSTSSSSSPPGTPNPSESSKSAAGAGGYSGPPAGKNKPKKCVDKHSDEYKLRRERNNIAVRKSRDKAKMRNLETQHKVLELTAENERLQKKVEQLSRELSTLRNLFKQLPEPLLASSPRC
Assay: co-IP; 200 μg protein extracts from frozen chicken liver, pre-cleared with protein A/G agarose beads, immunoprecipitated with 4 μg anti-C/EBPβ antibody overnight at 4°C; normal rabbit IgG as negative control; Western blot

binding: binds
Substance: phosphorylated signal transducer and activator of transcription 3 (from UniProt Q6DV79 1-771)
